The target in experiment [1] is asymmetric Δ526-GroES-ADP complex (E. coli). Put plainly: protease protection (encapsulation); denatured PepQ-24F (100 nM) bound to wild-type or Δ526 GroEL-GroES-ADP bullets (200 nM) or full-length or Δ526 single-ring GroEL (300 nM) with GroES (600 nM); single turnover with ATP (2 mM), quenched after 10 s; unencapsulated PepQ digested with Proteinase K; SDS-PAGE, fluorescein scan; both purified.

Protein sequences, listed by entry. Tags and fused reporters are not part of them. Lines headed by an entry give the natural chain unless they say otherwise; changes in a name come on top.
UniProt P0A6F5: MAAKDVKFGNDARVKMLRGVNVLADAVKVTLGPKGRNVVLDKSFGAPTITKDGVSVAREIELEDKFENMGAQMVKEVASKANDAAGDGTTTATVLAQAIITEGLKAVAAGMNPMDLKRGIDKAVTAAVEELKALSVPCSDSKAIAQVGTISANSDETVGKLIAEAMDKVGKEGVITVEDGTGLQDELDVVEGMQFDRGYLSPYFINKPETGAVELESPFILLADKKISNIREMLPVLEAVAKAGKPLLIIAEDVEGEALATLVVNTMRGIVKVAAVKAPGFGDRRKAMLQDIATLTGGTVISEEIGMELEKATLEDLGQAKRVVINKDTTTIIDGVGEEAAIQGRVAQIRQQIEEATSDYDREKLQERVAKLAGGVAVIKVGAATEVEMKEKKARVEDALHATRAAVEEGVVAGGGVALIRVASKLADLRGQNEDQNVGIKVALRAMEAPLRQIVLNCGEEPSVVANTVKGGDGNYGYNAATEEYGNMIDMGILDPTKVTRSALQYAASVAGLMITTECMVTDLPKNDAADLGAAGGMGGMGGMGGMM

In experiment [2] the target is single-ring mutant of GroEL, SR1 (E. coli) (UniProt P0A6F5). The experiment is described as above.
The target in experiment [3] is C-terminal truncation mutant of tetradecamer GroEL, Δ526 (E. coli) (UniProt P0A6F5). Put plainly: cryo-EM structure; acid-urea denatured PepQ (7 μM final) titrated into GroEL or Δ526 (8 μM tetradecamers) in TKM buffer, no nucleotide, room temperature 5 min; asymmetric 3D classification and refinement; both purified.

Where a chain is given by its changes, count along the chain named. No constants are given. Whether binding was seen depends on the method and setting. Binding can be weak; no strength is given.

B1: PepQ-24F (enzyme, UniProt P21165 1-443)
chain: MESLASLYKNHIATLQERTRDALCRFKLDALLIHSGELFNVFLDDHPYPFKVNPQFKAWVPVTQVPNCWLLVDGVNKPKLWFYLPVDYWHNVEPLPTSFWTEDVEVIALPKADGIGSLLPAARGNIGYIGPVPERALQLGIEASNINPKGVIDYLHYYRSFKTEYELACMREAQKMAVNGHRAAEEAFRSGMSEFDINIAYLTATGHRDTDVPYSNIVALNEHAAVLHYTKLDHQAPEEMRSFLLDAGAEYNGYAADLTRTWSAKSDNDYAQLVKDVNDEQLALIATMKAGVSYVDYHIQFHQRIAKLLRKHQIITDMSEEAMVENDLTGPFMPHGIGHPLGLQVHDVAGFMQDDSGTHLAAPAKYPYLRCTRILQPGMVLTIEPGIYFIESLLAPWREGQFSKHFNWQKIEALKPFGGIRIEDNVVIHENNVENMTRDLKLA
modifications: fluorescein (5-iodoacetamidofluorescein) on the cysteine at position 24
As to B1, the binding entry in experiment [1] and in experiment [2] was “binds” each time.

B2: wild type E. coli PepQ (enzyme, UniProt P21165 1-443)
chain: B1 chain with C24A
For the molecule B2, the binding result in experiment [3] is reported as “binds”.
